The target in this assay is T1, neuropeptide Y receptor Y5 (human (endogenous in SK-N-AS)) (UniProt Q15761).
T1 sequence: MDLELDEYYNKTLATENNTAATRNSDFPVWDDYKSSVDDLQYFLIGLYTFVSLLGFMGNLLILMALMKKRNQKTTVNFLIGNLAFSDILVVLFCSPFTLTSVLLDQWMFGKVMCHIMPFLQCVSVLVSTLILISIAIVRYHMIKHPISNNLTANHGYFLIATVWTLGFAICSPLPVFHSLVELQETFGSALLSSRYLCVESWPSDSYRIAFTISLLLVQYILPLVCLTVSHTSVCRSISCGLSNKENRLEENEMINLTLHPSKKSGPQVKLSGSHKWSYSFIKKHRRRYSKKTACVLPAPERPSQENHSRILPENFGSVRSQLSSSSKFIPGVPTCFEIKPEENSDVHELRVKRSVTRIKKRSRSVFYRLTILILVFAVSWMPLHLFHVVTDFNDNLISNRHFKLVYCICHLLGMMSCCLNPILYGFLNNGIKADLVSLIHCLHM
Put plainly: proximity ligation; Duolink in situ PLA with anti-Y5R and anti-RhoA-GTP antibodies in fixed, permeabilized SK-N-AS cells; serum-free media 24 h, then 10^-8 M NPY for 5, 10 or 20 min, with or without 30-min pre-incubation with 10^-6 M Y5R antagonist.

Sequences of proteins named here, by UniProt entry; tags and fusion partners are left off.
UniProt P61586: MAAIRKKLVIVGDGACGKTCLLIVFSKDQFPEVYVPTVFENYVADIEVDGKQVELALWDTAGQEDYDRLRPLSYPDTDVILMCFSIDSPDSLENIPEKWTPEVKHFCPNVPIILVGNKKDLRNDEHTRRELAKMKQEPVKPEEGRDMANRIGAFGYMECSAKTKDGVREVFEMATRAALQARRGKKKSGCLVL

No constants are given. Whether binding was seen depends on the method and setting. In cells and extracts the contact can be indirect. Some binding calls cover weakened binding; strength is not graded here.

In the case of RhoA-GTP (from UniProt P61586 1-193), the binding entry is reported as “binds”.

The record behind these values is PMC7928066.
